Results: publication PMC11835332
No constants are given. Whether binding was seen depends on the method and setting. Binding can be weak; no strength is given. Where a sequence is shown, tags or fusion partners need not be part of it. For part of these data: In cells and extracts the contact can be indirect. One block for each molecule: values may come before it.

Experiments:
[1] = molecular target: T1, His-HSCA2-Myc (without the mitochondrial targeting peptide) (Arabidopsis) (UniProt Q9LDZ0); experiment: native gel or EMSA; BN-PAGE (5%-13%) then SDS-PAGE in the second dimension; about 10 ug of each protein in 200 uL, 4°C one hour; 50 mM Tris-HCl pH 7.4, 50 mM NaCl, 10 mM KCl, 0.1% Tween-20, 100 uM ATP; anti-Myc blot; both purified
T1 sequence: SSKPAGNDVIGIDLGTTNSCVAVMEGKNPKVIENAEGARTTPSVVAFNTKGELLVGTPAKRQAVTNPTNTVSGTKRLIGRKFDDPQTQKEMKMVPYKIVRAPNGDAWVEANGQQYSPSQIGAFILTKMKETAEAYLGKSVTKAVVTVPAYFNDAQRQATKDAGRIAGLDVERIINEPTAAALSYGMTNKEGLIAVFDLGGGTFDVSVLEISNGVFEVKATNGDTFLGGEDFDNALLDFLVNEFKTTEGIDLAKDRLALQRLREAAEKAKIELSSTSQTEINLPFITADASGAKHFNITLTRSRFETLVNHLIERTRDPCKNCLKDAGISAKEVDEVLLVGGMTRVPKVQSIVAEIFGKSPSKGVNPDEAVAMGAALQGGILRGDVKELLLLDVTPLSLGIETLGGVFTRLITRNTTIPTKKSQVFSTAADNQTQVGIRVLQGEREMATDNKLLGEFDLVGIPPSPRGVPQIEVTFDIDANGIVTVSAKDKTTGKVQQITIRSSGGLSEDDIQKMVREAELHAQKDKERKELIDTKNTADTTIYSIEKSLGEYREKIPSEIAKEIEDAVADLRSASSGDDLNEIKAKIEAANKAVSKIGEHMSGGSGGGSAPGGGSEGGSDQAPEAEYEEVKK

[2] = molecular target: SSR1-Flag (Flag-tagged full-length SSR1 under the CaMV 35S promoter) (Arabidopsis); experiment: co-IP; extracts of 12-day-old transgenic seedlings with 35Spro:SSR1-Flag and HSCA2pro:HSCA2-Myc; anti-Flag (DYKDDDDK Isolation Kit, Miltenyi) precipitation; blots with anti-Myc and anti-ISU
[3] = molecular target: His-SSR1-Myc (without the mitochondrial targeting peptide) (Arabidopsis); experiment: pull-down; Ni Sepharose; about 10 ug purified His-tagged HSCA2, HSCA2^G87D or SSR1 with BL21(DE3) lysates expressing SSR1, ISU1 or ISU1^T55M without His-tag, 1 hour at 4°C; anti-Myc blot; only the target purified
[4] = molecular target: His-SSR1-Myc (without the mitochondrial targeting peptide) (Arabidopsis); experiment: native gel or EMSA; BN-PAGE (5%-13%) then SDS-PAGE in the second dimension; about 10 ug of each protein in 200 uL, 4°C one hour; 50 mM Tris-HCl pH 7.4, 50 mM NaCl, 10 mM KCl, 0.1% Tween-20, 100 uM ATP; anti-Myc blot; both purified
[5] = molecular target: His-SSR1-Myc (without the mitochondrial targeting peptide) (Arabidopsis); experiment: pull-down; Ni Sepharose; purified His-tagged baits with purified tag-excised preys (about 10 ug each in 200 uL), with or without SSR1-Myc; 50 mM Tris-HCl pH 7.4, 50 mM NaCl, 10 mM KCl, 0.1% Tween-20; 4°C; anti-Myc blot; both purified

binding [1]: binds
Molecule: His-SSR1-Myc (without the mitochondrial targeting peptide) (Arabidopsis)

binding [2]: binds
B1: HSCA2-Myc (Myc-tagged full-length HSCA2 under its native promoter) (protein, UniProt Q9LDZ0 51-682)
chain: SSKPAGNDVIGIDLGTTNSCVAVMEGKNPKVIENAEGARTTPSVVAFNTKGELLVGTPAKRQAVTNPTNTVSGTKRLIGRKFDDPQTQKEMKMVPYKIVRAPNGDAWVEANGQQYSPSQIGAFILTKMKETAEAYLGKSVTKAVVTVPAYFNDAQRQATKDAGRIAGLDVERIINEPTAAALSYGMTNKEGLIAVFDLGGGTFDVSVLEISNGVFEVKATNGDTFLGGEDFDNALLDFLVNEFKTTEGIDLAKDRLALQRLREAAEKAKIELSSTSQTEINLPFITADASGAKHFNITLTRSRFETLVNHLIERTRDPCKNCLKDAGISAKEVDEVLLVGGMTRVPKVQSIVAEIFGKSPSKGVNPDEAVAMGAALQGGILRGDVKELLLLDVTPLSLGIETLGGVFTRLITRNTTIPTKKSQVFSTAADNQTQVGIRVLQGEREMATDNKLLGEFDLVGIPPSPRGVPQIEVTFDIDANGIVTVSAKDKTTGKVQQITIRSSGGLSEDDIQKMVREAELHAQKDKERKELIDTKNTADTTIYSIEKSLGEYREKIPSEIAKEIEDAVADLRSASSGDDLNEIKAKIEAANKAVSKIGEHMSGGSGGGSAPGGGSEGGSDQAPEAEYEEVKK

binding [3]: binds
B2: ISU1-Myc expressed without His-tag, in E. coli lysate (without the mitochondrial targeting peptide) (protein, UniProt O49627 51-167)
chain: PNVGTGLVGAPACGDVMKLQIKVDEKTGQIVDARFKTFGCGSAIASSSVATEWVKGKAMEDVLTIKNTEIAKHLSLPPVKLHCSMLAEDAIKAAVKDYKEKRVKTNGAAAAGETTQA

binding [4]: binds
binding [5]: binds
B3: ISU1-Myc, purified, His-tag excised (without the mitochondrial targeting peptide) (protein, UniProt O49627 51-167)
chain: PNVGTGLVGAPACGDVMKLQIKVDEKTGQIVDARFKTFGCGSAIASSSVATEWVKGKAMEDVLTIKNTEIAKHLSLPPVKLHCSMLAEDAIKAAVKDYKEKRVKTNGAAAAGETTQA

binding [2]: binds
B4: ISU1, endogenous (detected with anti-ISU antibody) (protein, UniProt O49627 51-167)
chain: PNVGTGLVGAPACGDVMKLQIKVDEKTGQIVDARFKTFGCGSAIASSSVATEWVKGKAMEDVLTIKNTEIAKHLSLPPVKLHCSMLAEDAIKAAVKDYKEKRVKTNGAAAAGETTQA
